According to patent US20250283871A1, “COMPOSITIONS AND METHODS FOR MODULATING THE INTERACTION BETWEEN SS18-SSX FUSION ONCOPROTEIN AND NUCLEOSOMES” (Dana-Farber Cancer Institute, Inc., priority 2020, published 2025):

Tested on: BAF complex subunits and histone proteins
Experiment: Mass spectrometry proteomics of purified HA-SS18 WT and HA-SS18-SSX1 complexes (Tables 5A-5E)
Set-up: species or system human
[1] = HA-SS18SSX1_NE_peptides: protein co-purified with HA-SS18-SSX1 BAF complexes from soluble nuclear extract (NE), HEK-293T cells
[2] = HA-SS18WT_NE_peptides: HA-SS18 WT complexes purified from nuclear extract (NE), HEK-293T, label = protein identified (Gene Symbol)
[3] = HA-SS18WT_NE_peptides: proteins co-purified with HA-SS18 WT from nuclear extract (NE), HEK-293T
[4] = HA-SS18WT_CHR_peptides: HA-SS18 WT purification from nuclease-treated solubilized chromatin (CHR), HEK-293T, label = protein identified

Row | Molecule | Total (peptides) [1] | Unique (peptides) [1] | Total (peptides) [2] | Unique (peptides) [2] | Total (peptides) [3] | Unique (peptides) [3] | Total (peptides) [4] | Unique (peptides) [4]
1 | PYCR2 (protein, UniProt Q96C36 2-320, looked up) Pyrroline-5-carboxylate …: SVGFIGAGQLAYALARGFTAAGILSAHKIIASSPEMNLPTVSALRKMGVNLTRSNKETVKHSDVLFLAVKPHIIPFILDEIGADVQARHIVVSCAAGVTISSVEKKLMAFQPAPKVIRCMTNTPVVVQEGATVYATGTHALVEDGQLLEQLMSSVGFCTEVEEDLIDAVTGLSGSGPAYAFMALDALADGGVKMGLPRRLAIQLGAQALLGAAKMLLDSEQHPCQLKDNVCSPGGATIHALHFLESGGFRSLLINAVEASCIRTRELQSMADQEKISPAALKKTLLDRVKLESPTVSTLTPSSPGKLLTRSLALGGKKD | 2 | 2 | 2 | 2 | – | – | – | –
2 | GLT8D1 (protein, UniProt Q68CQ7 1-371, looked up) Glycosyltransferase 8 …: MSFRKVNIIILVLAVALFLLVLHHNFLSLSSLLRNEVTDSGIVGPQPIDFVPNALRHAVDGRQEEIPVVIAASEDRLGGAIAAINSIQHNTRSNVIFYIVTLNNTADHLRSWLNSDSLKSIRYKIVNFDPKLLEGKVKEDPDQGESMKPLTFARFYLPILVPSAKKAIYMDDDVIVQGDILALYNTALKPGHAAAFSEDCDSASTKVVIRGAGNQYNYIGYLDYKKERIRKLSMKASTCSFNPGVFVANLTEWKRQNITNQLEKWMKLNVEEGLYSRTLAGSITTPPLLIVFYQQHSTIDPMWNVRHLGSSAGKRYSPQFVKAAKLLHWNGHLKPWGRTASYTDVWEKWYIPDPTGKFNLIRRYTEISNIK | 2 | 2 | 3 | 3 | – | – | – | –
3 | EARS2 (protein, UniProt Q5JPH6 42-523, looked up) Nondiscriminating …: APSPTGFLHLGGLRTALYNYIFAKKYQGSFILRLEDTDQTRVVPGAAENIEDMLEWAGIPPDESPRRGGPAGPYQQSQRLELYAQATEALLKTGAAYPCFCSPQRLELLKKEALRNHQTPRYDNRCRNMSQEQVAQKLAKDPKPAIRFRLEQVVPAFQDLVYGWNRHEVASVEGDPVIMKSDGFPTYHLACVVDDHHMGISHVLRGSEWLVSTAKHLLLYQALGWQPPHFAHLPLLLNRDGSKLSKRQGDVFLEHFAADGFLPDSLLDIITNCGSGFAENQMGRTLPELITQFNLTQVTCHSALLDLEKLPEFNRLHLQRLVSNESQRRQLVGKLQVLVEEAFGCQLQNRDVLNPVYVERILLLRQGHICRLQDLVSPVYSYLWTRPAVGRAQLDAISEKVDVIAKRVLGLLERSSMSLTQDMLNGELKKLSEGLEGTKYSNVMKLLRMALSGQQQGPPVAEMMLALGPKEVRERIQKVVSS | 2 | 2 | – | – | 1 | 1 | – | –
4 | ATL3 (protein, UniProt Q6DD88 1-541, looked up) Atlastin-3: MLSPQRVAAAASRGADDAMESSKPGPVQVVLVQKDQHSFELDEKALASILLQDHIRDLDVVVVSVAGAFRKGKSFILDFMLRYLYSQKESGHSNWLGDPEEPLTGFSWRGGSDPETTGIQIWSEVFTVEKPGGKKVAVVLMDTQGAFDSQSTVKDCATIFALSTMTSSVQIYNLSQNIQEDDLQQLQLFTEYGRLAMDEIFQKPFQTLMFLVRDWSFPYEYSYGLQGGMAFLDKRLQVKEHQHEEIQNVRNHIHSCFSDVTCFLLPHPGLQVATSPDFDGKLKDIAGEFKEQLQALIPYVLNPSKLMEKEINGSKVTCRGLLEYFKAYIKIYQGEDLPHPKSMLQATAEANNLAAAASAKDIYYNNMEEVCGGEKPYLSPDILEEKHCEFKQLALDHFKKTKKMGGKDFSFRYQQELEEEIKELYENFCKHNGSKNVFSTFRTPAVLFTGIVALYIASGLTGFIGLEVVAQLFNCMVGLLLIALLTWGYIRYSGQYRELGGAIDFGAAYVLEQASSHIGNSTQATVRDAVVGRPSMDKKAQ | 2 | 2 | 2 | 2 | – | – | – | –
5 | AGPAT5 (protein, UniProt Q9NUQ2 1-364, looked up) 1-acyl-sn-glycerol-3-phosphate …: MLLSLVLHTYSMRYLLPSVVLLGTAPTYVLAWGVWRLLSAFLPARFYQALDDRLYCVYQSMVLFFFENYTGVQILLYGDLPKNKENIIYLANHQSTVDWIVADILAIRQNALGHVRYVLKEGLKWLPLYGCYFAQHGGIYVKRSAKFNEKEMRNKLQSYVDAGTPMYLVIFPEGTRYNPEQTKVLSASQAFAAQRGLAVLKHVLTPRIKATHVAFDCMKNYLDAIYDVTVVYEGKDDGGQRRESPTMTEFLCKECPKIHIHIDRIDKKDVPEEQEHMRRWLHERFEIKDKMLIEFYESPDPERRKRFPGKSVNSKLSIKKTLPSMLILSGLTAGMLMTDAGRKLYVNTWIYGTLLGCLWVTIKA | 2 | 2 | – | – | 2 | 2 | – | –
6 | MTX3 (protein, UniProt Q5HYI7 1-312, looked up) Metaxin-3: MAAPLELSCWGGGWGLPSVHSESLVVMAYAKFSGAPLKVNVIDNTWRGSRGDVPILTTEDDMVSQPAKILNFLRKQKYNADYELSAKQGADTLAYIALLEEKLLPAVLHTFWVESDNYFTVTKPWFASQIPFPLSLILPGRMSKGALNRILLTRGQPPLYHLREVEAQIYRDAKECLNLLSNRLGTSQFFFGDTPSTLDAYVFGFLAPLYKVRFPKVQLQEHLKQLSNLCRFCDDILSSYFRLSLGGISPAGQETVDANLQKLTQLVNKESNLIEKMDDNLRQSPQLPPRKLPTLKLTPAEEENNSFQRLSP | 2 | 2 | – | – | 1 | 1 | – | –
7 | PC (protein, UniProt P11498 21-1178, looked up) Pyruvate carboxylase, …: TAPAASPNVRRLEYKPIKKVMVANRGEIAIRVFRACTELGIRTVAIYSEQDTGQMHRQKADEAYLIGRGLAPVQAYLHIPDIIKVAKENNVDAVHPGYGFLSERADFAQACQDAGVRFIGPSPEVVRKMGDKVEARAIAIAAGVPVVPGTDAPITSLHEAHEFSNTYGFPIIFKAAYGGGGRGMRVVHSYEELEENYTRAYSEALAAFGNGALFVEKFIEKPRHIEVQILGDQYGNILHLYERDCSIQRRHQKVVEIAPAAHLDPQLRTRLTSDSVKLAKQVGYENAGTVEFLVDRHGKHYFIEVNSRLQVEHTVTEEITDVDLVHAQIHVAEGRSLPDLGLRQENIRINGCAIQCRVTTEDPARSFQPDTGRIEVFRSGEGMGIRLDNASAFQGAVISPHYDSLLVKVIAHGKDHPTAATKMSRALAEFRVRGVKTNIAFLQNVLNNQQFLAGTVDTQFIDENPELFQLRPAQNRAQKLLHYLGHVMVNGPTTPIPVKASPSPTDPVVPAVPIGPPPAGFRDILLREGPEGFARAVRNHPGLLLMDTTFRDAHQSLLATRVRTHDLKKIAPYVAHNFSKLFSMENWGGATFDVAMRFLYECPWRRLQELRELIPNIPFQMLLRGANAVGYTNYPDNVVFKFCEVAKENGMDVFRVFDSLNYLPNMLLGMEAAGSAGGVVEAAISYTGDVADPSRTKYSLQYYMGLAEELVRAGTHILCIKDMAGLLKPTACTMLVSSLRDRFPDLPLHIHTHDTSGAGVAAMLACAQAGADVVDVAADSMSGMTSQPSMGALVACTRGTPLDTEVPMERVFDYSEYWEGARGLYAAFDCTATMKSGNSDVYENEIPGGQYTNLHFQAHSMGLGSKFKEVKKAYVEANQMLGDLIKVTPSSKIVGDLAQFMVQNGLSRAEAEAQAEELSFPRSVVEFLQGYIGVPHGGFPEPFRSKVLKDLPRVEGRPGASLPPLDLQALEKELVDRHGEEVTPEDVLSAAMYPDVFAHFKDFTATFGPLDSLNTRLFLQGPKIAEEFEVELERGKTLHIKALAVSDLNRAGQRQVFFELNGQLRSILVKDTQAMKEMHFHPKALKDVKGQIGAPMPGKVIDIKVVAGAKVAKGQPLCVLSAMKMETVVTSPMEGTVRKVHVTKDMTLEGDDLILEIE | 2 | 2 | – | – | – | – | 4 | 4
8 | UQCRFS1 (protein, UniProt P47985 79-274, looked up) Cytochrome b-c1 complex …: SHTDIKVPDFSEYRRLEVLDSTKSSRESSEARKGFSYLVTGVTTVGVAYAAKNAVTQFVSSMSASADVLALAKIEIKLSDIPEGKNMAFKWRGKPLFVRHRTQKEIEQEAAVELSQLRDPQHDLDRVKKPEWVILIGVCTHLGCVPIANAGDFGGYYCPCHGSHYDASGRIRLGPAPLNLEVPTYEFTSDDMVIVG | 2 | 2 | 5 | 5 | – | – | – | –
9 | AGPS (protein, UniProt O00116 59-658, looked up) Alkyldihydroxyacetonephosphate …: KARRAASAATAAPTATPAAQESGTIPKKRQEVMKWNGWGYNDSKFIFNKKGQIELTGKRYPLSGMGLPTFKEWIQNTLGVNVEHKTTSKASLNPSDTPPSVVNEDFLHDLKETNISYSQEADDRVFRAHGHCLHEIFLLREGMFERIPDIVLWPTCHDDVVKIVNLACKYNLCIIPIGGGTSVSYGLMCPADETRTIISLDTSQMNRILWVDENNLTAHVEAGITGQELERQLKESGYCTGHEPDSLEFSTVGGWVSTRASGMKKNIYGNIEDLVVHIKMVTPRGIIEKSCQGPRMSTGPDIHHFIMGSEGTLGVITEATIKIRPVPEYQKYGSVAFPNFEQGVACLREIAKQRCAPASIRLMDNKQFQFGHALKPQVSSIFTSFLDGLKKFYITKFKGFDPNQLSVATLLFEGDREKVLQHEKQVYDIAAKFGGLAAGEDNGQRGYLLTYVIAYIRDLALEYYVLGESFETSAPWDRVVDLCRNVKERITRECKEKGVQFAPFSTCRVTQTYDAGACIYFYFAFNYRGISDPLTVFEQTEAAAREEILANGGSLSHHHGVGKLRKQWLKESISDVGFGMLKSVKEYVDPNNIFGNRNLL | 2 | 2 | – | – | – | – | – | –
10 | MTFP1 (protein, UniProt Q9UDX5 1-166, looked up) Mitochondrial fission process …: MSEPQPRGAERDLYRDTWVRYLGYANEVGEAFRSLVPAAVVWLSYGVASSYVLADAIDKGKKAGEVPSPEAGRSARVTVAVVDTFVWQALASVAIPGFTINRVCAASLYVLGTATRWPLAVRKWTTTALGLLTIPIIIHPIDRSVDFLLDSSLRKLYPTVGKPSSS | 2 | 2 | – | – | 2 | 2 | – | –
